# Experimental data published in PMC7819943, “Rice protein-binding microarrays: a tool to detect cis-acting elements near promoter regions in rice”.
# Sequences of proteins named here, by UniProt entry; tags and fusion partners are left off.
# UniProt Q0JBA9, entry or part of it: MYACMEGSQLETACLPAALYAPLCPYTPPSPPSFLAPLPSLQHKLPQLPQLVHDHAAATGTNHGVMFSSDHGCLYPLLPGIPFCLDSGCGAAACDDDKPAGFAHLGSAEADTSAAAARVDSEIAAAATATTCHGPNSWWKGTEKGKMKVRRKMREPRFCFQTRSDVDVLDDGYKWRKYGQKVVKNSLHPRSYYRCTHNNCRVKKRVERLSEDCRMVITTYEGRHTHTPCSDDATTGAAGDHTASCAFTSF
# Some of the results follow.
# Target: OsWRKY34 (Oryza sativa, UniProt Q0JBA9 1-250)
# Assay: protein-binding microarray (RPBM); PBS, 2% BSA, 51.3 ng/ul salmon testes DNA, 50 uM zinc acetate, 200 nM TF, 25 C, 1 h; high values mean tight binding
# Conditions: protein: recombinant; tags: N-terminal polyhistidine and DsRed monomer fusion (pET32a); label: CyDye5-dUTP incorporated in the synthesized complementary strand; 3' TTTTT single-stranded linker to array surface; dsDNA, one strand shown
# Procedure, shortened: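 Binding signal here means per-feature fluorescence intensity in arbitrary units. The values were read on an Axon 4000B scanner after a custom Agilent array, double-stranded by primer extension with Cy5-dUTP, was incubated with 200 nM protein at 25 °C for 1 h in PBS with 2% BSA, salmon testes DNA and 50 µM zinc acetate, then washed. The proteins were transcription factors with an N-terminal polyhistidine tag and DsRed, expressed in E. coli BL21-CodonPlus and purified on Ni–NTA.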
row,Sequence,binding signal
1,GACTATGCTAACTTCCATTCGAGATCTATAATTTCTTAAACGGAGTCACCTAGTGCAG,8020 fluorescence intensity (a.u.)
2,TGCCATTGCCATTGGACACATCATCGCCATTTCTGACACTCGGAGTCACCTAGTGCAG,8150 fluorescence intensity (a.u.)
3,GGTACTCTCTTCGTTTTTAGTATACGACGCCGTTGACTTTCGGAGTCACCTAGTGCAG,16000 fluorescence intensity (a.u.)
4,TGTATGTATAATGGTGTTAGTGTCGCCTTTGGGTGTGTTTCGGAGTCACCTAGTGCAG,9740 fluorescence intensity (a.u.)
5,CTCCTTCATCTCTAATCACGCACATGCAACTCACTAGCTCCGGAGTCACCTAGTGCAG,8600 fluorescence intensity (a.u.)
6,AGCTCCAGCTTCAGCTTTTGGCTTCTCCTATAGCCTCTTTCGGAGTCACCTAGTGCAG,8470 fluorescence intensity (a.u.)
7,TTCCTATCATCTAAGGTAACCCTTGGTCATCACCGATTCACGGAGTCACCTAGTGCAG,8110 fluorescence intensity (a.u.)
8,TACCTTGTTCGTTTCTTTGCAATATTCATTCCGACAAATGCGGAGTCACCTAGTGCAG,9390 fluorescence intensity (a.u.)
9,CGTCACTACCACCATTCTCTTCTTCGTCTACTTCCAGCTACGGAGTCACCTAGTGCAG,9300 fluorescence intensity (a.u.)
10,CTCTATCTGGTGATTTCTTGTGTTGGTGGGGTCCCGTACGCGGAGTCACCTAGTGCAG,13100 fluorescence intensity (a.u.)
11,CGTCGCCGGCGTCTCCCACCTGCCCGGCTGCCCTGCCCCACGGAGTCACCTAGTGCAG,8310 fluorescence intensity (a.u.)
12,AGGAAGGAGTGGGTGGGTAGGTGAGTGGAGTTGGTCGATGCGGAGTCACCTAGTGCAG,8360 fluorescence intensity (a.u.)
13,ACTCTTTTATCTCGCTCGTGCGCGTTAGTTTCGCTTCGCTCGGAGTCACCTAGTGCAG,10300 fluorescence intensity (a.u.)
14,TCTCCATTTGGCGAGGAGAGCAGAGCAGGGGAGGGGAGGGCGGAGTCACCTAGTGCAG,11500 fluorescence intensity (a.u.)
15,CGTTTTTTTCGTGGCGAGCGAGCTTGCGTCACCGGCCTTCCGGAGTCACCTAGTGCAG,13100 fluorescence intensity (a.u.)
16,AGGGGAGCCGTCAACCTTCATCGCCACTGCAGATCTTCTCCGGAGTCACCTAGTGCAG,8060 fluorescence intensity (a.u.)
17,AAGTAATCATCGCTCGTGCACTTGGATTTTTCAGTTTCCACGGAGTCACCTAGTGCAG,8660 fluorescence intensity (a.u.)
18,CATTTGTGTTGATGTGTGTTGTGCTGGCTTATTTCATGTACGGAGTCACCTAGTGCAG,14600 fluorescence intensity (a.u.)
19,TTCCCGTCCATCAGATCGGTACCGCCCCATCTTCCTCCTTCGGAGTCACCTAGTGCAG,8070 fluorescence intensity (a.u.)
20,ACCACACTACTAATTTGTACTTACTTCGTCTCAAAAATATCGGAGTCACCTAGTGCAG,8490 fluorescence intensity (a.u.)
21,CTGCCTGCCCGAGTTGCCTTGCCCGCTTGTACTTTGCCTGCGGAGTCACCTAGTGCAG,9380 fluorescence intensity (a.u.)

# An excerpt from the list above, for reference:
row,Sequence,binding signal
18,CATTTGTGTTGATGTGTGTTGTGCTGGCTTATTTCATGTACGGAGTCACCTAGTGCAG,14600 fluorescence intensity (a.u.)
19,TTCCCGTCCATCAGATCGGTACCGCCCCATCTTCCTCCTTCGGAGTCACCTAGTGCAG,8070 fluorescence intensity (a.u.)

# The list continues:

row,Sequence,binding signal
1,TCGTTTTTTTTCCCTTAAAGTGCTTATATGCTAATAGGGTCGGAGTCACCTAGTGCAG,9240 fluorescence intensity (a.u.)
2,ATGGTGTGCATGGTTTGCTTCTGATTGTTTGTTTAGGATTCGGAGTCACCTAGTGCAG,8870 fluorescence intensity (a.u.)
3,ACCACCACCGGTTTGCCCATCCCCGGACCCACCCGCCAGTCGGAGTCACCTAGTGCAG,8630 fluorescence intensity (a.u.)
4,CAACACCACAAGAACACCTGATTGCTTGTTTGAACTATCTCGGAGTCACCTAGTGCAG,9030 fluorescence intensity (a.u.)
5,TGTCACGAAAACCATTCTTTCAACCGCAGTTTAATCTTAACGGAGTCACCTAGTGCAG,8280 fluorescence intensity (a.u.)
6,ATCATCCCATCCCATCTCATCCGTCCATCCGCCAACTCATCGGAGTCACCTAGTGCAG,12300 fluorescence intensity (a.u.)
7,CACACTATTAATCATTTTGATTTTGGTATACTGCACTTTTCGGAGTCACCTAGTGCAG,8080 fluorescence intensity (a.u.)
8,CCGTGCGCAATGTTTGACCGTTCGTCTTATTTGAAAAAATCGGAGTCACCTAGTGCAG,8400 fluorescence intensity (a.u.)
9,GCTGGTGGTGGTGGTAGAGGAGGAGTTGACGGCGAGGGGACGGAGTCACCTAGTGCAG,10300 fluorescence intensity (a.u.)
10,TCTCATCTGTCTATCAGTTTCGTCCAGGCACAACATAAGTCGGAGTCACCTAGTGCAG,9010 fluorescence intensity (a.u.)
11,GCCGCCGCCGCTTCGATTGCTCACTCGCGCCCCTCGCCGCCGGAGTCACCTAGTGCAG,11200 fluorescence intensity (a.u.)
12,GAACTTTTCCTGGATGGTGATCCTTCTTTTGGCCTTCTTTCGGAGTCACCTAGTGCAG,10500 fluorescence intensity (a.u.)
13,TAATTCTCGGATCCCACGCACAAGCAGTTGACCAACCGAGCGGAGTCACCTAGTGCAG,9030 fluorescence intensity (a.u.)
14,TATATATATATATATATATATATATAGCTGGGCGATGAACCGGAGTCACCTAGTGCAG,16300 fluorescence intensity (a.u.)
15,CTCTGCCAACGACTTCATCTTCATTATCTGTCGTTGGCTGCGGAGTCACCTAGTGCAG,8480 fluorescence intensity (a.u.)
16,GGTTATATTTTCGTGTTGCCATGCTTTCAACACACTTTGGCGGAGTCACCTAGTGCAG,9890 fluorescence intensity (a.u.)
17,TCGCCCTCTTCTTCTTCGTCGGCGCCGCCTTCGACAAGCTCGGAGTCACCTAGTGCAG,8240 fluorescence intensity (a.u.)
18,GCAGATGTTTTGTGAGTTGTGAGTTTCATTCCTGTCCAAACGGAGTCACCTAGTGCAG,11100 fluorescence intensity (a.u.)
19,TGCATTTCAATTCAAATTTAAGTTGATTCGTTGACTTGTTCGGAGTCACCTAGTGCAG,10100 fluorescence intensity (a.u.)
20,TCCCTCGTCGTCGTCGTCCCTGCGCCGCGGGGCGGGGCGGCGGAGTCACCTAGTGCAG,13700 fluorescence intensity (a.u.)
21,TGTTTCAACGTGTATTTTCATCATGTTTCATAAGCTTTTTCGGAGTCACCTAGTGCAG,9190 fluorescence intensity (a.u.)
